Results deposited as PubChem BioAssay AID1224828 (NIAID, 2016)
Assay: 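Find genes required for NF-kappaB p65 moving into the nucleus after LPS in mouse macrophages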 (primary screen). Cell system: mouse RAW264.7 G9 macrophage reporter cells (GFP-p65, Tnf promoter-mCherry). Knock-down reagent: siRNA pool against mouse genes, 100 nM. Time to read-out: 2 days siRNA transfection, then 40 min LPS before fixation. Challenge: LPS (Salmonella minnesota R595) at 10 ng/ml. Read-out: 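Imaged p65 nuclear translocation ratio, normalised to the plate median, converted to robust z-scores and averaged across two replicates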. Reading the numbers: p65 translocation robust z-score: higher = more nuclear NF-kappaB p65 after LPS than the plate median; nuclear/cytoplasmic p65 ratio: higher = more nuclear NF-kappaB p65. Hit rule: 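Called active when z exceeds 3.3 or falls under -1.56 (median of Tlr4 controls), giving activity score of at least 50; no calls for control wells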. Meaning of the calls: active = hit (p65 shift raised or lowered); inactive = no clear change.
The whole screen tested about 17,000 reagents; shown is an unselected part. Over the whole deposit, 762 (4.5%) got an active call. 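Active calls include both raised and lowered p65 entry, mostly lowered; wells with fewer than 50 cells lack a z-score.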 Raw values are not corrected between plates.

Myb
- p65 translocation robust z-score: 0.63
- nuclear/cytoplasmic p65 ratio, rep 1: 1.53
- nuclear/cytoplasmic p65 ratio, rep 2: 1.41
- low cell count flag: enough cells to score
- activity call: inactive

Cfap20
- p65 translocation robust z-score: -1.93
- nuclear/cytoplasmic p65 ratio, rep 1: 1.23
- nuclear/cytoplasmic p65 ratio, rep 2: 1.38
- low cell count flag: enough cells to score
- activity call: active

Acss1
- p65 translocation robust z-score: -0.03
- nuclear/cytoplasmic p65 ratio, rep 1: 1.6
- nuclear/cytoplasmic p65 ratio, rep 2: 1.68
- low cell count flag: enough cells to score
- activity call: inactive

Or52e15
- p65 translocation robust z-score: -1.25
- nuclear/cytoplasmic p65 ratio, rep 1: 1.29
- nuclear/cytoplasmic p65 ratio, rep 2: 1.12
- low cell count flag: enough cells to score
- activity call: inactive

Cavin3
- p65 translocation robust z-score: -1.42
- nuclear/cytoplasmic p65 ratio, rep 1: 1.3
- nuclear/cytoplasmic p65 ratio, rep 2: 1.15
- low cell count flag: enough cells to score
- activity call: inactive

Dusp23
- nuclear/cytoplasmic p65 ratio, rep 1: 1.39
- nuclear/cytoplasmic p65 ratio, rep 2: 1.19
- low cell count flag: fewer than 50 cells per well; well left out of scoring
- activity call: inactive

Mybbp1a
- p65 translocation robust z-score: -0.82
- nuclear/cytoplasmic p65 ratio, rep 1: 1.29
- nuclear/cytoplasmic p65 ratio, rep 2: 1.28
- low cell count flag: enough cells to score
- activity call: inactive

Ctbp2
- p65 translocation robust z-score: -0.5
- nuclear/cytoplasmic p65 ratio, rep 1: 1.46
- nuclear/cytoplasmic p65 ratio, rep 2: 1.27
- low cell count flag: enough cells to score
- activity call: inactive

Fut1
- p65 translocation robust z-score: -0.92
- nuclear/cytoplasmic p65 ratio, rep 1: 1.36
- nuclear/cytoplasmic p65 ratio, rep 2: 1.21
- low cell count flag: enough cells to score
- activity call: inactive

Kcnip1
- p65 translocation robust z-score: -0.7
- nuclear/cytoplasmic p65 ratio, rep 1: 1.34
- nuclear/cytoplasmic p65 ratio, rep 2: 1.44
- low cell count flag: enough cells to score
- activity call: inactive

Yy1
- p65 translocation robust z-score: -1.06
- nuclear/cytoplasmic p65 ratio, rep 1: 1.38
- nuclear/cytoplasmic p65 ratio, rep 2: 1.41
- low cell count flag: enough cells to score
- activity call: inactive

Pkn1
- p65 translocation robust z-score: 1.72
- nuclear/cytoplasmic p65 ratio, rep 1: 1.82
- nuclear/cytoplasmic p65 ratio, rep 2: 1.59
- low cell count flag: enough cells to score
- activity call: inactive

Nipal2
- p65 translocation robust z-score: 0.72
- nuclear/cytoplasmic p65 ratio, rep 1: 1.51
- nuclear/cytoplasmic p65 ratio, rep 2: 1.66
- low cell count flag: enough cells to score
- activity call: inactive

Slc11a2
- p65 translocation robust z-score: 0.72
- nuclear/cytoplasmic p65 ratio, rep 1: 1.56
- nuclear/cytoplasmic p65 ratio, rep 2: 1.68
- low cell count flag: enough cells to score
- activity call: inactive

Rev1
- p65 translocation robust z-score: 0.24
- nuclear/cytoplasmic p65 ratio, rep 1: 1.58
- nuclear/cytoplasmic p65 ratio, rep 2: 1.52
- low cell count flag: enough cells to score
- activity call: inactive

Tmc2
- p65 translocation robust z-score: -2.32
- nuclear/cytoplasmic p65 ratio, rep 1: 1.07
- nuclear/cytoplasmic p65 ratio, rep 2: 1.11
- low cell count flag: enough cells to score
- activity call: active

Oas1c
- p65 translocation robust z-score: 1.97
- nuclear/cytoplasmic p65 ratio, rep 1: 2.03
- nuclear/cytoplasmic p65 ratio, rep 2: 1.81
- low cell count flag: enough cells to score
- activity call: inactive

Or8u8
- p65 translocation robust z-score: 0.3
- nuclear/cytoplasmic p65 ratio, rep 1: 1.46
- nuclear/cytoplasmic p65 ratio, rep 2: 1.3
- low cell count flag: enough cells to score
- activity call: inactive

Fmo2
- p65 translocation robust z-score: 1.43
- nuclear/cytoplasmic p65 ratio, rep 1: 1.72
- nuclear/cytoplasmic p65 ratio, rep 2: 1.73
- low cell count flag: enough cells to score
- activity call: inactive

Or6c213
- nuclear/cytoplasmic p65 ratio, rep 1: 1.35
- nuclear/cytoplasmic p65 ratio, rep 2: 1.25
- low cell count flag: fewer than 50 cells per well; well left out of scoring
- activity call: inactive

Gbp3
- p65 translocation robust z-score: -1.19
- nuclear/cytoplasmic p65 ratio, rep 1: 1.37
- nuclear/cytoplasmic p65 ratio, rep 2: 1.34
- low cell count flag: enough cells to score
- activity call: inactive

Eef1g
- p65 translocation robust z-score: -1.25
- nuclear/cytoplasmic p65 ratio, rep 1: 1.38
- nuclear/cytoplasmic p65 ratio, rep 2: 1.12
- low cell count flag: enough cells to score
- activity call: inactive

Por
- p65 translocation robust z-score: 1.32
- nuclear/cytoplasmic p65 ratio, rep 1: 1.73
- nuclear/cytoplasmic p65 ratio, rep 2: 1.54
- low cell count flag: enough cells to score
- activity call: inactive

Or52b4
- p65 translocation robust z-score: 0.42
- nuclear/cytoplasmic p65 ratio, rep 1: 1.31
- nuclear/cytoplasmic p65 ratio, rep 2: 1.32
- low cell count flag: enough cells to score
- activity call: inactive

Mrrf
- p65 translocation robust z-score: -0.62
- nuclear/cytoplasmic p65 ratio, rep 1: 1.7
- nuclear/cytoplasmic p65 ratio, rep 2: 1.49
- low cell count flag: enough cells to score
- activity call: inactive

Nfix
- p65 translocation robust z-score: -0.34
- nuclear/cytoplasmic p65 ratio, rep 1: 1.47
- nuclear/cytoplasmic p65 ratio, rep 2: 1.31
- low cell count flag: enough cells to score
- activity call: inactive

Or5b123
- p65 translocation robust z-score: -0.2
- nuclear/cytoplasmic p65 ratio, rep 1: 1.61
- nuclear/cytoplasmic p65 ratio, rep 2: 1.38
- low cell count flag: enough cells to score
- activity call: inactive

In a second layout: 4 of the entries above.
Gene,p65 translocation robust z-score,"nuclear/cytoplasmic p65 ratio, rep 1","nuclear/cytoplasmic p65 ratio, rep 2",low cell count flag,activity call
Tmc2,-2.32,1.07,1.11,enough cells to score,active
Oas1c,1.97,2.03,1.81,enough cells to score,inactive
Or8u8,0.3,1.46,1.3,enough cells to score,inactive
Fmo2,1.43,1.72,1.73,enough cells to score,inactive
